Here are results for three molecules from publication PMC7305295.

The chains behind the UniProt entries cited, without tags or fusion partners.
UniProt Q9NRC8: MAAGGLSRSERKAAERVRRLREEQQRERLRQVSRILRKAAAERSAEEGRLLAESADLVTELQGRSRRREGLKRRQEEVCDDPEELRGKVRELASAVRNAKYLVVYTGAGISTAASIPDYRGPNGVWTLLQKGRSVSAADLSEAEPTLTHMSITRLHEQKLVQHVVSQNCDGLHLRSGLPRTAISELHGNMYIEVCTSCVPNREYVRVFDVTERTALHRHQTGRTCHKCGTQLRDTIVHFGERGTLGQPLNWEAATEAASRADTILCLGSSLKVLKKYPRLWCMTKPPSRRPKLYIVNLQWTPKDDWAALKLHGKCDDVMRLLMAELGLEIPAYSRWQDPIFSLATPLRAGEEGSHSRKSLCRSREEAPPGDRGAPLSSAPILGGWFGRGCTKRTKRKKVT
UniProt Q13263: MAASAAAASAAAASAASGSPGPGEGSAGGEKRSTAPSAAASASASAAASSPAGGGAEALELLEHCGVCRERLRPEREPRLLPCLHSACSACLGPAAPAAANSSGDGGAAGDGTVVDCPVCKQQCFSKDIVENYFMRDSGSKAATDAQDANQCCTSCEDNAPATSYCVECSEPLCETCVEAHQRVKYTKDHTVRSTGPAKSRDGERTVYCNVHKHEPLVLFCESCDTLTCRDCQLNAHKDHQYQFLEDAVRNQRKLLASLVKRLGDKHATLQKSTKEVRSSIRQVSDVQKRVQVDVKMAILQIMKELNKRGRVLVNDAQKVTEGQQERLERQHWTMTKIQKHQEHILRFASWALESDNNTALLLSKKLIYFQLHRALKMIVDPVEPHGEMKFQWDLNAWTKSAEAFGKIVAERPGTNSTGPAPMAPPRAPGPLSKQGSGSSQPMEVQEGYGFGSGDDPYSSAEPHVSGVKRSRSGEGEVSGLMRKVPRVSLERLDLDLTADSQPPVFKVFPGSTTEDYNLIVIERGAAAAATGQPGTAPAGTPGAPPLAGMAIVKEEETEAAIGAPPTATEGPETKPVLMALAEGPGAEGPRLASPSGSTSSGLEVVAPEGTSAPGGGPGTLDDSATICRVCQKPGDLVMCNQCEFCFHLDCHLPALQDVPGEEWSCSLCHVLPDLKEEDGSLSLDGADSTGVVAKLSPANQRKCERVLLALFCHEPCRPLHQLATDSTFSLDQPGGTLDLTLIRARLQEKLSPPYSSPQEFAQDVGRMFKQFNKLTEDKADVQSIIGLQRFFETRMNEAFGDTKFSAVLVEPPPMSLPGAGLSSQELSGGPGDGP
UniProt Q14739: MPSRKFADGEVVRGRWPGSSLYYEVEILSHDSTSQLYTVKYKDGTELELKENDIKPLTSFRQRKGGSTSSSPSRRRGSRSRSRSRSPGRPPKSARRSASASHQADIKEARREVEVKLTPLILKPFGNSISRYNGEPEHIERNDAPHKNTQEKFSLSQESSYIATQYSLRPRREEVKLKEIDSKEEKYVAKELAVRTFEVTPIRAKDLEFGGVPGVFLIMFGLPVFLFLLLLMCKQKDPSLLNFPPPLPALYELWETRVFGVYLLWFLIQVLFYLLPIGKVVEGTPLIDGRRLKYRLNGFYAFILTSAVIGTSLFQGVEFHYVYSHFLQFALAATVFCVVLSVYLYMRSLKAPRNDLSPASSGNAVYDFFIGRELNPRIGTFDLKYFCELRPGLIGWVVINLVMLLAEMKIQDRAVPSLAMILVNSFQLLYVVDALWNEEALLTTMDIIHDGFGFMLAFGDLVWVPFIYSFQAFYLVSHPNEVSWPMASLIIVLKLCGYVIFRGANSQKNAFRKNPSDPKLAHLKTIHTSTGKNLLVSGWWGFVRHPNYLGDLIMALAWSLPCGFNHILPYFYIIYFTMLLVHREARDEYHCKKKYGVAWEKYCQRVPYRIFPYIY

The test deals with Flag-tagged SIRT7 (UniProt Q9NRC8). Briefly: affinity purification with mass spectrometry; Flag-SIRT7 expressed in HEK293T cells, IP with anti-Flag antibody, eluates separated by SDS-PAGE, bands analysed by LC-MS/MS; Flag-Luc as control.

No constants are given. Whether binding was seen depends on the method and setting. In cells and extracts the contact can be indirect. A yes stands for co-enrichment or nearness to the bait. Other partners may have been found.

For “heterochromatin protein KAP1 (from UniProt Q13263 1-835)”, the binding result is listed as “binds”.
Regarding “nuclear lamina protein LBR (from UniProt Q14739 1-615)”, the binding result was “binds”.

B1: fibrillarin (FBL) (protein, UniProt P22087 1-321)
chain: MKPGFSPRGGGFGGRGGFGDRGGRGGRGGFGGGRGRGGGFRGRGRGGGGGGGGGGGGGRGGGGFHSGGNRGRGRGGKRGNQSGKNVMVEPHRHEGVFICRGKEDALVTKNLVPGESVYGEKRVSISEGDDKIEYRAWNPFRSKLAAAILGGVDQIHIKPGAKVLYLGAASGTTVSHVSDIVGPDGLVYAVEFSHRSGRDLINLAKKRTNIIPVIEDARHPHKYRMLIAMVDVIFADVAQPDQTRIVALNAHTFLRNGGHFVISIKANCIDSTASAEAVFASEVKKMQQENMKPQEQLTLEPYERDHAVVVGVYRPPPKVKN
Turning to B1, the binding result is “binds”.
